Experimental data taken from US20100015637A1 (AbbVie / Abbott, published 2010).
Results are given in words; binding and its absence hold for the method and conditions named. Some entries that bind do so weakly or less than the wild type. Where a sequence is shown, tags or fusion partners need not be part of it.

Amino acid sequences for entries named in this document (tags omitted). A change or cut given only in a name is not applied to a line headed by its entry.
UniProt P49763: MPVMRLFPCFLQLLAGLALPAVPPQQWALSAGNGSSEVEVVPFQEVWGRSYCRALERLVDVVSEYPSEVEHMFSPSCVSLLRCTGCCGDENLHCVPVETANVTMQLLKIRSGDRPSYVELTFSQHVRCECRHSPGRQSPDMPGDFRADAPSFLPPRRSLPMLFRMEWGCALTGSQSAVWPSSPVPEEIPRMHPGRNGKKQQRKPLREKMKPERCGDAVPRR

Target: T1, CHO human PlGF-1 comprising amino acids 1-137 (human PlGF-1-His (1-131), CHO 6305) (human) (UniProt P49763)
T1 sequence (chain, N-glycans at N21 (completely glycosylated) and N89 (partially glycosylated)): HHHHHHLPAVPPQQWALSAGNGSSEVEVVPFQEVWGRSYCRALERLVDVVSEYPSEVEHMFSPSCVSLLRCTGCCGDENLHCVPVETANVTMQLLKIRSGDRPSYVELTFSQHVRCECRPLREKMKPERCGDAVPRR
Assay: ClonepixFL colony immunoprecipitation in semi-solid medium; CHO colonies secreting human PlGF-1 (1-131)

B1: anti-human PlGF-1 monoclonal antibody from clone 1-255-189 (antibody, V domains shown)
VH: QVHLQQSGAELMKPGASVKISCKATGYTFSSYWIEWVKQRPGHGLEWIGEILPGSVSNNFNEKFKDKATLTADPSSNTAYIQVSSLTSEDSAVYYCARSTGFYYGGNYFDHWGQGTTLAVSS
VL: DVVMTQTPLSLPVSPGDQASISCRSSQSLVHSNGHTYLHWYLQKPGQSPKLLIYKVSNRFSGVPDRVSGSGSGTDFTLKISRVEAEDLGVYFCSQSTHVPPTFGGGTKLEIKR
With B1 the binding was “binds”.
